# Measurements reported in patent EP3398599A1, “COMPOSITIONS AND METHODS FOR PROPHYLAXIS AND TREATMENT OF ADDICTIONS” (priority 2009, dated 2010).
# At least one structure is not confirmed: it was looked up by name or label, or the drawing left a doubt.
# Test system: Wistar rats
# Experiment: Acquisition of heroin self-administration (FR1)
# Format: in vivo
# Settings: post-hoc comparisons
smiles,measurement,value
CCc1ccc(CCOc2ccc(CC3SC(=O)NC3=O)cc2)nc1 (stereo not shown) [pioglitazone],heroin self-administration from day 3 to day 8: control vs pioglitazone,significant difference
